Source: article PMC9470683
These are yes or no findings as the source states them, for the method shown. In cells and extracts the contact can be indirect. Some results given as binding are weak or reduced against the parent protein; the word gives no strength.

Amino acid sequences for entries named in this document (tags omitted).
UniProt Q9NQS7: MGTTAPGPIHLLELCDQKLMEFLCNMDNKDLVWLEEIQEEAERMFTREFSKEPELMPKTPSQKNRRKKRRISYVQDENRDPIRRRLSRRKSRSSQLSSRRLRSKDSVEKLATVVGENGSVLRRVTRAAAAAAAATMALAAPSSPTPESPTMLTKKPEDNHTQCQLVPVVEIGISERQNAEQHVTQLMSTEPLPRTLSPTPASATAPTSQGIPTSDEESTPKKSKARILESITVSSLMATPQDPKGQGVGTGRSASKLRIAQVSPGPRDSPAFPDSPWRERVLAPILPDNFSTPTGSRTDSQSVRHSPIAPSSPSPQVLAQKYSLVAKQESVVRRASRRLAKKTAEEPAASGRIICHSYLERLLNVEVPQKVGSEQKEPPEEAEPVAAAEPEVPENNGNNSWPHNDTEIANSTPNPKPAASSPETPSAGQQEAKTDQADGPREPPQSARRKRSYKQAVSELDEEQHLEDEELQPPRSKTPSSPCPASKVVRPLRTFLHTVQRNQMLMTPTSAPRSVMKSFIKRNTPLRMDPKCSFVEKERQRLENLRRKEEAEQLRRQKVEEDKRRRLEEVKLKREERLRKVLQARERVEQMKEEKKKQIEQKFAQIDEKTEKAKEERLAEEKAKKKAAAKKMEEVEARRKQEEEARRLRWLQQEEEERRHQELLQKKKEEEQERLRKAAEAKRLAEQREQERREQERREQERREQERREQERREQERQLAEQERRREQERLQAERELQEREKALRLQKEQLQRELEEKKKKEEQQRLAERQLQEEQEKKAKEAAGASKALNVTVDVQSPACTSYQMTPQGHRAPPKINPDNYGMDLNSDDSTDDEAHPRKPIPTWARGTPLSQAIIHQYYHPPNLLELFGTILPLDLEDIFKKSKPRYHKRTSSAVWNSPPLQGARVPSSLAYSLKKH
UniProt O15392: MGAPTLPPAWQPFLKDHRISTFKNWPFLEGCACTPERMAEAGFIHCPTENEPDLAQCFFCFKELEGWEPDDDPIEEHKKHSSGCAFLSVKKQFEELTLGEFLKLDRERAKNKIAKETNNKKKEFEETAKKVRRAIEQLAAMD

T1: Aurora B kinase (human (endogenous in RPE-1)), Q96GD4
T1 chain: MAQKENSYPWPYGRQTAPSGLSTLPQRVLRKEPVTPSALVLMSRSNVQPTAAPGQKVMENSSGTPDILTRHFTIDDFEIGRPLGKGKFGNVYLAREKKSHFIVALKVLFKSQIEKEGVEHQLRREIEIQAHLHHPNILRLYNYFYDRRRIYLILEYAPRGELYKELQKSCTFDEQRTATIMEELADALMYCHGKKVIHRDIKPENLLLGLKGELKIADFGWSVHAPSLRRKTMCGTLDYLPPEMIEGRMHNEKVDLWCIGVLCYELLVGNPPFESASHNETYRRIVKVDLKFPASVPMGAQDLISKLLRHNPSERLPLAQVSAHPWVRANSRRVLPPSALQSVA


What was measured:
[1] = target: Aurora B kinase (human (endogenous in RPE-1)) (UniProt Q96GD4); assay: co-IP; IP with Aurora B antibody (BD 611082) or mouse IgG isotype control from metaphase-arrested mAID-Sp1 RPE-1 cells, with or without auxin-induced Sp1 degradation before mitotic entry; immunoblot for CPC members
[2] = target: T1, Aurora B kinase (human (endogenous in …)); assay: as above; settings: remark: other sources report otherwise

binding [2]	Molecule	binding [1]
	INCENP (from UniProt Q9NQS7 1-918)	binds
	survivin (from UniProt O15392 1-142)	binds
binds	Borealin, Q53HL2 1-280 (protein) MAPRKGSSRVAKTNSLRRRKLASFLKDFDREVEIRIKQIESDRQNLLKEVDNLYNIEILRLPKALREMNWLDYFALGGNKQALEEAATADLDITEINKLTAEAIQTPLKSAKTRKVIQVDEMIVEEEEEEENERKNLQTARVKRCPPSKKRTQSIQGKGKGKRSSRANTVTPAVGRLEVSMVKPTPGLTPRFDSRVFKTPGLRTPAAGERIYNISGNGSPLADSKEIFLTVPVGGGESLRLLASDLQRHSIAQLDPEALGNIKKLSNRLAQICSSIRTHK	
